Test results: patent US20120309704A1, “COMPOSITIONS FOR TREATMENT OF CHEMORESISTANT AND/OR POTENTIALLY CHEMORESISTANT LEUKAEMIAS” (priority 2009, published 2012)

What was measured:
697 cells = assay: Annexin V/propidium iodide apoptosis of 697 cells cultured in the absence or presence of marrow stromal cells (MSC); format: cell-based, human
[1] = test system: AML cell lines and primary samples; conditions: administration of hERG1 blockers; cited from earlier work

Structure (SMILES): Cc1cccc(CCN2CCC(C(=O)c3ccc(NS(C)(=O)=O)cc3)CC2)n1.Cl.Cl [E4031, N-[4-[[1-[2-(6-Methyl-2-pyridyl)ethyl]-4-piperidinyl]carbonyl]phenyl]metanesolfonammide dihydrochloride]
- protective effect exerted by the stroma against doxorubicin in the presence of the hERG1 inhibitor (697 cells; 697 cells + MSC + doxorubicin 0.1 μg/ml, E4031 20 μM, erythromycin 100 μM, sertindole 1 μM, 48 hours): reverted
- pro-apoptotic effect of the hERG1 inhibitor alone (697 cells; 697 cells, E4031 alone): has a pro-apoptotic effect
- pro-apoptotic effect of the hERG1 inhibitor in combination with doxorubicin (697 cells; 697 cells, combination with doxorubicin): strongly strengthened
- cellular growth [1]: impairs cellular growth
